Measurements reported in paper PMC5520704.
Results are given in words; binding and its absence hold for the method and conditions named. Binding seen in cells or lysates may run through a third protein. A yes stands for co-enrichment or nearness to the bait. Other partners may have been found. Sequences can lack the tags named with a protein.

By UniProt entry, the sequences of proteins in these tests, tags left out. Where a name states a change or a piece, a line headed by the entry shows the natural chain unless it says otherwise.
UniProt P06396: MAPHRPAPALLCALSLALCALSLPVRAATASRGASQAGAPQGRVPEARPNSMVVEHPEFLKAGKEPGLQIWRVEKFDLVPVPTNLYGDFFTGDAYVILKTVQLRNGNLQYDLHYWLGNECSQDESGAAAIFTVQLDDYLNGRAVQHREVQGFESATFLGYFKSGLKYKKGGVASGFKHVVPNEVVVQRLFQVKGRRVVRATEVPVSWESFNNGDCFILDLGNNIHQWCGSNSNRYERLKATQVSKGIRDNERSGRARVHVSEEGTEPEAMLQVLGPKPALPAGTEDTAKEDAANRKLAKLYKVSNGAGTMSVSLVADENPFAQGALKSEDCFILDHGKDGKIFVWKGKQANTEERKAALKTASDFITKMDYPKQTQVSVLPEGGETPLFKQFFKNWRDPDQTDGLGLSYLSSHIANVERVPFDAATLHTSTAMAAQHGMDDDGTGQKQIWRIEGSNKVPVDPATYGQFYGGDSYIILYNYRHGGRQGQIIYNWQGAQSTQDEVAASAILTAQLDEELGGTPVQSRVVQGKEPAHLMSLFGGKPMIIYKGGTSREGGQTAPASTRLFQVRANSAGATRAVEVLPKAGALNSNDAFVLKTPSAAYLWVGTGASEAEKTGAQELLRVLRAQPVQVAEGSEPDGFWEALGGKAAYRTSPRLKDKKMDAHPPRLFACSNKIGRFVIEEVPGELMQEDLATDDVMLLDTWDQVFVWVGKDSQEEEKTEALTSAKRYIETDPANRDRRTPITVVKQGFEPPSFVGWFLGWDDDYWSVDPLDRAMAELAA

Molecular target: T1, BASP1 that contains a C-terminal HA tag (UniProt P80723)
T1 sequence: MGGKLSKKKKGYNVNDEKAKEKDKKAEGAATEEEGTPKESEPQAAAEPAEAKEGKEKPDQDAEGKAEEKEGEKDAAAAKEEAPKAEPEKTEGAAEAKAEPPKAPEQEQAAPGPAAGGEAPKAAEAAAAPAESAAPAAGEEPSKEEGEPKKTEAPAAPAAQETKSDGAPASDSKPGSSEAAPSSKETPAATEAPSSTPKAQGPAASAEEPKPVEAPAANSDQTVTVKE
Assay: affinity purification with mass spectrometry; anti-HA immunoprecipitation from nuclear extracts of B-K562 (BASP1-HA) and V-K562 (empty pcDNA3) cells; Orbitrap mass spectrometry of the immunoprecipitates

gelsolin (from UniProt P06396)
binding: binds
